Source: article PMC10987644
No constants are given. Whether binding was seen depends on the method and setting. Binding seen in cells or lysates may run through a third protein. A yes stands for co-enrichment or nearness to the bait. Other partners may have been found.

Sequences of proteins named here, by UniProt entry; tags and fusion partners are left off.
UniProt P11940: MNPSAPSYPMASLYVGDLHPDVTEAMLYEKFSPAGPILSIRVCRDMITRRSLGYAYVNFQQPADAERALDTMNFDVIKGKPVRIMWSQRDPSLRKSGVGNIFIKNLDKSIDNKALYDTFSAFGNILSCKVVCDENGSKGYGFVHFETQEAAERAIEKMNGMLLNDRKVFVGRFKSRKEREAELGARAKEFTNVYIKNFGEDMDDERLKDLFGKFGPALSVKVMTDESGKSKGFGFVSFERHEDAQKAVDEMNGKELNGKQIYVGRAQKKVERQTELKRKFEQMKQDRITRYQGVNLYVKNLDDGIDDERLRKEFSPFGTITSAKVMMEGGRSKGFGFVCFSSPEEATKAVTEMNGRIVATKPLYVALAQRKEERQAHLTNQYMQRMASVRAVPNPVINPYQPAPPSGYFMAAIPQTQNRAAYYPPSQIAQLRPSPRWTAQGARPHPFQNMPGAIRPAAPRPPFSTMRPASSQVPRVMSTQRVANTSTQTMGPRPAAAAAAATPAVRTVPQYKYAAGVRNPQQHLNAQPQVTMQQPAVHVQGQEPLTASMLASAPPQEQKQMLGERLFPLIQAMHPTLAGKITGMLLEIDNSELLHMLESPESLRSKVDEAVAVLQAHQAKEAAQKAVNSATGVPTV

T1: MEX-3 RNA binding family member A (MEX3A) (human) (UniProt A1L020)
T1 sequence: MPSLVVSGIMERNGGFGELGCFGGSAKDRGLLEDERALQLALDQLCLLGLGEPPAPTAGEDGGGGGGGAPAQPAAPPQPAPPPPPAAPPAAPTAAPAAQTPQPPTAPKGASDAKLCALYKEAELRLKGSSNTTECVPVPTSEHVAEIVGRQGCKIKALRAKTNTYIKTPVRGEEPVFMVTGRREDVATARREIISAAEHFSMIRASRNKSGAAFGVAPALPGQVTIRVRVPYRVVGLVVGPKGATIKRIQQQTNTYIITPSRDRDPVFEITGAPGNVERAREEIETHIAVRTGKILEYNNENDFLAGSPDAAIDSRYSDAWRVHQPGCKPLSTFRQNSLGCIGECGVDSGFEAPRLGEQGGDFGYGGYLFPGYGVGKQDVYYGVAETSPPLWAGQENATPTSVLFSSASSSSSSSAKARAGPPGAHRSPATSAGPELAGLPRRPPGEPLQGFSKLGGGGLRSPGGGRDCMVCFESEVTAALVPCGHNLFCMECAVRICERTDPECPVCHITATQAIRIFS

B1: UPF1 (protein, UniProt Q92900 1-1129)
chain: MSVEAYGPSSQTLTFLDTEEAELLGADTQGSEFEFTDFTLPSQTQTPPGGPGGPGGGGAGGPGGAGAGAAAGQLDAQVGPEGILQNGAVDDSVAKTSQLLAELNFEEDEEDTYYTKDLPIHACSYCGIHDPACVVYCNTSKKWFCNGRGNTSGSHIVNHLVRAKCKEVTLHKDGPLGETVLECYNCGCRNVFLLGFIPAKADSVVVLLCRQPCASQSSLKDINWDSSQWQPLIQDRCFLSWLVKIPSEQEQLRARQITAQQINKLEELWKENPSATLEDLEKPGVDEEPQHVLLRYEDAYQYQNIFGPLVKLEADYDKKLKESQTQDNITVRWDLGLNKKRIAYFTLPKTDSGNEDLVIIWLRDMRLMQGDEICLRYKGDLAPLWKGIGHVIKVPDNYGDEIAIELRSSVGAPVEVTHNFQVDFVWKSTSFDRMQSALKTFAVDETSVSGYIYHKLLGHEVEDVIIKCQLPKRFTAQGLPDLNHSQVYAVKTVLQRPLSLIQGPPGTGKTVTSATIVYHLARQGNGPVLVCAPSNIAVDQLTEKIHQTGLKVVRLCAKSREAIDSPVSFLALHNQIRNMDSMPELQKLQQLKDETGELSSADEKRYRALKRTAERELLMNADVICCTCVGAGDPRLAKMQFRSILIDESTQATEPECMVPVVLGAKQLILVGDHCQLGPVVMCKKAAKAGLSQSLFERLVVLGIRPIRLQVQYRMHPALSAFPSNIFYEGSLQNGVTAADRVKKGFDFQWPQPDKPMFFYVTQGQEEIASSGTSYLNRTEAANVEKITTKLLKAGAKPDQIGIITPYEGQRSYLVQYMQFSGSLHTKLYQEVEIASVDAFQGREKDFIILSCVRANEHQGIGFLNDPRRLNVALTRARYGVIIVGNPKALSKQPLWNHLLNYYKEQKVLVEGPLNNLRESLMQFSKPRKLVNTINPGARFMTTAMYDAREAIIPGSVYDRSSQGRPSSMYFQTHDQIGMISAGPSHVAAMNIPIPFNLVMPPMPPPGYFGQANGPAAGRGTPKGKTGRGGRQKNRFGLPGPSQTNLPNSQASQDVASQPFSQGALTQGYISMSQPSQMSQPGLSQPELSQDSYLGDEFKSQIDVALSQDSTYQGERAYQHGGVTGLSQY
B2: MOV10 (protein, UniProt Q9HCE1 1-1003)
chain: MPSKFSCRQLREAGQCFESFLVVRGLDMETDRERLRTIYNRDFKISFGTPAPGFSSMLYGMKIANLAYVTKTRVRFFRLDRWADVRFPEKRRMKLGSDISKHHKSLLAKIFYDRAEYLHGKHGVDVEVQGPHEARDGQLLIRLDLNRKEVLTLRLRNGGTQSVTLTHLFPLCRTPQFAFYNEDQELPCPLGPGECYELHVHCKTSFVGYFPATVLWELLGPGESGSEGAGTFYIARFLAAVAHSPLAAQLKPMTPFKRTRITGNPVVTNRIEEGERPDRAKGYDLELSMALGTYYPPPRLRQLLPMLLQGTSIFTAPKEIAEIKAQLETALKWRNYEVKLRLLLHLEELQMEHDIRHYDLESVPMTWDPVDQNPRLLTLEVPGVTESRPSVLRGDHLFALLSSETHQEDPITYKGFVHKVELDRVKLSFSMSLLSRFVDGLTFKVNFTFNRQPLRVQHRALELTGRWLLWPMLFPVAPRDVPLLPSDVKLKLYDRSLESNPEQLQAMRHIVTGTTRPAPYIIFGPPGTGKTVTLVEAIKQVVKHLPKAHILACAPSNSGADLLCQRLRVHLPSSIYRLLAPSRDIRMVPEDIKPCCNWDAKKGEYVFPAKKKLQEYRVLITTLITAGRLVSAQFPIDHFTHIFIDEAGHCMEPESLVAIAGLMEVKETGDPGGQLVLAGDPRQLGPVLRSPLTQKHGLGYSLLERLLTYNSLYKKGPDGYDPQFITKLLRNYRSHPTILDIPNQLYYEGELQACADVVDRERFCRWAGLPRQGFPIIFHGVMGKDEREGNSPSFFNPEEAATVTSYLKLLLAPSSKKGKARLSPRSVGVISPYRKQVEKIRYCITKLDRELRGLDDIKDLKVGSVEEFQGQERSVILISTVRSSQSFVQLDLDFNLGFLKNPKRFNVAVTRAKALLIIVGNPLLLGHDPDWKVFLEFCKENGGYTGCPFPAKLDLQQGQNLLQGLSKLSPSTSGPHSHDYLPQEREGEGGLSLQVEPEWRNEL

molecular target: T1, MEX-3 RNA binding family member A (MEX3A) (human); test: affinity purification with mass spectrometry; co-immunoprecipitation of MEX3A from 293T cells, silver staining, mass spectrometry; hits with area ratio (MEX3A/CTRL) > 2 and unique peptides > 2

binding, binds:
PABP1 (from UniProt P11940 1-636)
B1
B2
